The other results are listed elsewhere or left out.
Tests used:
Assay in all cases: glycan array binding signal (z-score within array); higher = stronger binding
Details in all cases: glycan notation: IUPAC condensed, linker removed
[1] = biological target: Fuc(a1-2)Gal(b1-4)GlcNAc(b1-3)Gal(b1-4)GlcNAc(b1-3)Gal(b1-4)GlcNAc
Summary of the method: (§1)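 Glycan array binding is given as a within-array Z-score, which can be read as non-binding when negative. The arrays, 3228 of them, came from the Consortium for Functional Glycomics database and were retained only where the protein sequence was available. Z-scores were averaged across arrays of the same protein sequence at different concentrations or buffers and across linkers.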

[2] = biological target: Fuc(a1-2)Gal(b1-4)GlcNAc(b1-3)GalNAc
Summary of the method: as §1

[3] = biological target: Fuc(a1-2)Gal(b1-4)GlcNAc(b1-3)[Fuc(a1-2)Gal(b1-4)GlcNAc(b1-6)]GalNAc
Summary of the method: as §1

[4] = biological target: Fuc(a1-2)Gal(b1-4)GlcNAc(b1-3)[Fuc(a1-3)[Gal(b1-4)]GlcNAc(b1-6)]Gal(b1-4)Glc
Summary of the method: as §1

[5] = biological target: Fuc(a1-2)Gal(b1-4)GlcNAc(b1-6)GalNAc
Summary of the method: as §1

[6] = biological target: Fuc(a1-2)Gal(b1-4)GlcNAc6S
Summary of the method: as §1

[7] = biological target: Fuc(a1-2)Gal(b1-4)[Fuc(a1-3)]GlcNAc
Summary of the method: as §1

[8] = biological target: Fuc(a1-2)Gal(b1-4)[Fuc(a1-3)]GlcNAc(b1-2)Man(a1-3)[Fuc(a1-2)Gal(b1-4)[Fuc(a1-3)]GlcNAc(b1-2)Man(a1-6)]Man(b1-4)GlcNAc(b1-4)[Fuc(a1-6)]GlcNAc
Summary of the method: as §1

[9] = biological target: Fuc(a1-2)Gal(b1-4)[Fuc(a1-3)]GlcNAc(b1-2)[Fuc(a1-2)Gal(b1-4)[Fuc(a1-3)]GlcNAc(b1-4)]Man(a1-3)[Fuc(a1-2)Gal(b1-4)[Fuc(a1-3)]GlcNAc(b1-2)Man(a1-6)]Man(b1-4)GlcNAc(b1-4)GlcNAc
Summary of the method: as §1

[10] = biological target: Fuc(a1-2)Gal(b1-4)[Fuc(a1-3)]GlcNAc(b1-3)Gal(b1-4)[Fuc(a1-3)]GlcNAc
Summary of the method: as §1

[11] = biological target: Fuc(a1-2)Gal(b1-4)[Fuc(a1-3)]GlcNAc(b1-3)Gal(b1-4)[Fuc(a1-3)]GlcNAc(b1-3)Gal(b1-4)[Fuc(a1-3)]GlcNAc
Summary of the method: as §1

[12] = biological target: Fuc(a1-2)Gal(b1-4)[Fuc(a1-3)]GlcNAc(b1-3)GalNAc
Summary of the method: as §1

[13] = biological target: Fuc(a1-2)Gal(b1-4)[Fuc(a1-3)]GlcNAc(b1-3)[Neu5Ac(a2-6)Gal(b1-4)GlcNAc(b1-6)]Gal(b1-4)Glc
Summary of the method: as §1

[14] = biological target: Fuc(a1-2)Gal3S(b1-4)GlcNAc
Summary of the method: as §1

[15] = biological target: Fuc(a1-2)Gal6S(b1-3)GlcNAc
Summary of the method: as §1

[16] = biological target: Fuc(a1-2)Gal6S(b1-3)GlcNAc6S
Summary of the method: as §1

[17] = biological target: Fuc(a1-2)Gal6S(b1-4)Glc
Summary of the method: as §1

[18] = biological target: Fuc(a1-2)Gal6S(b1-4)Glc6S
Summary of the method: as §1

[19] = biological target: Fuc(a1-2)[Gal(a1-3)]Gal
Summary of the method: as §1

[20] = biological target: Fuc(a1-2)[Gal(a1-3)]Gal(b1-3)GalNAc
Summary of the method: as §1

[21] = biological target: Fuc(a1-2)[Gal(a1-3)]Gal(b1-3)GalNAc(b1-3)Gal(a1-4)Gal(b1-4)Glc
Summary of the method: as §1

[22] = biological target: Fuc(a1-2)[Gal(a1-3)]Gal(b1-3)GlcNAc
Summary of the method: as §1

[23] = biological target: Fuc(a1-2)[Gal(a1-3)]Gal(b1-3)GlcNAc(b1-2)Man(a1-3)[Fuc(a1-2)[Gal(a1-3)]Gal(b1-3)GlcNAc(b1-2)Man(a1-6)]Man(b1-4)GlcNAc(b1-4)GlcNAc
Summary of the method: as §1

[24] = biological target: Fuc(a1-2)[Gal(a1-3)]Gal(b1-3)GlcNAc(b1-2)Man(a1-3)[Fuc(a1-2)[Gal(a1-3)]Gal(b1-3)GlcNAc(b1-2)Man(a1-6)]Man(b1-4)GlcNAc(b1-4)[Fuc(a1-6)]GlcNAc
Summary of the method: as §1

[25] = biological target: Fuc(a1-2)[Gal(a1-3)]Gal(b1-3)GlcNAc(b1-3)GalNAc
Summary of the method: as §1

[26] = biological target: Fuc(a1-2)[Gal(a1-3)]Gal(b1-3)GlcNAc(b1-6)GalNAc
Summary of the method: as §1

[27] = biological target: Fuc(a1-2)[Gal(a1-3)]Gal(b1-4)Glc
Summary of the method: as §1

[28] = biological target: Fuc(a1-2)[Gal(a1-3)]Gal(b1-4)GlcNAc
Summary of the method: as §1

[29] = biological target: Fuc(a1-2)[Gal(a1-3)]Gal(b1-4)GlcNAc(b1-2)Man
Summary of the method: as §1

[30] = biological target: Fuc(a1-2)[Gal(a1-3)]Gal(b1-4)GlcNAc(b1-2)Man(a1-3)[Fuc(a1-2)[Gal(a1-3)]Gal(b1-4)GlcNAc(b1-2)Man(a1-6)]Man(b1-4)GlcNAc(b1-4)GlcNAc
Summary of the method: as §1

B1: FliC (Clostridium difficile) (protein)
chain: MRVNTNVSALIANNQMGRNVNGQSKSMEKLSSGVRIKRAADDAAGLAISEKMRAQIKGLDQAGRNVQDGISVVQTAEGSLEETGNILQRMRTLSLQSANEINNTEEREKIADELTQLKDEIERISSSTEFNGKKLLDGTSSTIRLQVGASYGTNVSGTSNNNNEIKIQLVNTASIMASAGITTASIGSMKAGGTTGTDAAKTMVSSLDAALKSLNSSRAKLGAQQNRLESTQNNLNNTLENVTAAESRIRDTDVASEMVNLSKMNILVQASQSMLAQANQQPQGVLQLLG
[1]
  glycan array binding signal (z-score): -0.47
[2]
  glycan array binding signal (z-score): -0.405
[3]
  glycan array binding signal (z-score): 0.144
[4]
  glycan array binding signal (z-score): -0.129
[5]
  glycan array binding signal (z-score): -1.19
[6]
  glycan array binding signal (z-score): -0.906
[7]
  glycan array binding signal (z-score): -0.034
[8]
  glycan array binding signal (z-score): -0.411
[9]
  glycan array binding signal (z-score): 0.298
[10]
  glycan array binding signal (z-score): 0.205
[11]
  glycan array binding signal (z-score): -0.413
[12]
  glycan array binding signal (z-score): 1.13
[13]
  glycan array binding signal (z-score): 0.114
[14]
  glycan array binding signal (z-score): -0.478
[15]
  glycan array binding signal (z-score): -0.684
[16]
  glycan array binding signal (z-score): 0.013
[17]
  glycan array binding signal (z-score): -0.281
[18]
  glycan array binding signal (z-score): -0.047
[19]
  glycan array binding signal (z-score): 0.187
[20]
  glycan array binding signal (z-score): -0.512
[21]
  glycan array binding signal (z-score): 0.091
[22]
  glycan array binding signal (z-score): -0.434
[23]
  glycan array binding signal (z-score): -0.018
[24]
  glycan array binding signal (z-score): 0.469
[25]
  glycan array binding signal (z-score): 0.173
[26]
  glycan array binding signal (z-score): -0.427
[27]
  glycan array binding signal (z-score): -0.069
[28]
  glycan array binding signal (z-score): 0.003
[29]
  glycan array binding signal (z-score): -0.008
[30]
  glycan array binding signal (z-score): 0.189

From the supplement of paper PMC8728848
